Earlier results in patent US20250078975A1, “METHODS OF PREDICTING PATIENT TREATMENT RESPONSE AND RESISTANCE VIA SINGLE-CELL TRANSCRIPTOMICS OF THEIR TUMORS” (The USA, as represented by the Secretary, Department of …, priority 2023, published 2025).
At least one compound was matched to its structure with a doubt left.

Conditions: addition of trametinib to erlotinib, phase I/II clinical trial (Luo et al. 2021)

**Q.** Which Survival does the source give for `CC(=O)Nc1cccc(-n2c(=O)n(C3CC3)c(=O)c3c(Nc4ccc(I)cc4F)n(C)c(=O)c(C)c32)c1` [trametinib] here?
**A.** did not significantly improve survival
